PubChem BioAssay AID1224830, NIAID – 2016
Screen: 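Genes whose knock-down alters the TNF-alpha reporter response to LPS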 (primary screen). System: human THP-1 monocytic leukaemia cells, TNF dual-luciferase reporter clone, PMA-differentiated to macrophage-like cells. Knock-down reagent: siRNA pool against human genes, 50 nM. Timing: LPS for 4 h, given about 3 days after siRNA transfection. Conditions: bacterial LPS (TLR4 ligand), 10 ng/ml. Read-out: 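Ratio of firefly to renilla light, scaled to the plate median and expressed as a robust z-score per replicate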. Reading the numbers: TNF reporter robust z-score: higher = stronger TNF reporter response to LPS. Call rule: 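a well is active when its z-score exceeds 2.8 or falls below -1.5; control wells carry no call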.
The whole screen tested about 18,000 reagents; shown is a part drawn at random. About 2,900 of all reagents (16%) were called active. 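Calls are made per well; low scores hint the gene aids the LPS response, high scores that it dampens it.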 Repeated entries: four replicate wells of each siRNA pool. No sequences are given here.

gene | TNF reporter robust z-score | outcome
NFAM1 | -1.38 | inactive
NFAM1 | -1.3 | inactive
NFAM1 | -1.23 | inactive
NFAM1 | -1.21 | inactive
PIEZO2 | 1.14 | inactive
PIEZO2 | 0.39 | inactive
PIEZO2 | 0.41 | inactive
PIEZO2 | 1.27 | inactive
VPS26B | 0.19 | inactive
VPS26B | -1.11 | inactive
VPS26B | 0.24 | inactive
VPS26B | -0.16 | inactive
SNX17 | -1 | inactive
SNX17 | -0.85 | inactive
SNX17 | -1.29 | inactive
SNX17 | -0.59 | inactive
SSX1 | -0.56 | inactive
SSX1 | -0.1 | inactive
SSX1 | -0.4 | inactive
SSX1 | -1.14 | inactive
RSRP1 | 0.24 | inactive
RSRP1 | -0.23 | inactive
RSRP1 | 0.16 | inactive
RSRP1 | -0.05 | inactive
RTKN2 | 0.86 | inactive
RTKN2 | 1.33 | inactive
RTKN2 | 0.72 | inactive
RTKN2 | 0.24 | inactive
ARHGEF15 | -0.53 | inactive
ARHGEF15 | 0 | inactive
ARHGEF15 | -0.9 | inactive
ARHGEF15 | -0.62 | inactive
BACE2 | -0.29 | inactive
BACE2 | -0.4 | inactive
BACE2 | -0.73 | inactive
TFIP11 | -0.72 | inactive
TFIP11 | -0.74 | inactive
TFIP11 | -1.18 | inactive
TFIP11 | -0.9 | inactive
ZDHHC7 | -0.41 | inactive
ZDHHC7 | -0.08 | inactive
ZDHHC7 | -0.03 | inactive
ZDHHC7 | 0.09 | inactive
PIR | 0.96 | inactive
PIR | -0.01 | inactive
PIR | -0.16 | inactive
PIR | 0 | inactive
TMEM187 | -1.54 | active
TMEM187 | -0.33 | inactive
TMEM187 | -1.11 | inactive
ITGB3BP | -0.79 | inactive
ITGB3BP | -1.08 | inactive
ITGB3BP | -0.59 | inactive
ITGB3BP | -0.78 | inactive
ATP9A | 0.14 | inactive
ATP9A | -0.08 | inactive
ATP9A | -0.57 | inactive
ATP9A | -0.04 | inactive
PP2D1 | -0.45 | inactive
PP2D1 | -0.14 | inactive
PP2D1 | -0.09 | inactive
PP2D1 | 0.23 | inactive
KIF15 | 0.44 | inactive
KIF15 | 1.77 | inactive
KIF15 | 0.42 | inactive
KIF15 | 1.14 | inactive
ZNF91 | 1.26 | inactive
ZNF91 | 1.63 | inactive
ZNF91 | 1.13 | inactive
ZNF91 | -0.77 | inactive
PRSS35 | -0.93 | inactive
PRSS35 | -0.35 | inactive
PRSS35 | -0.67 | inactive
PRSS35 | -0.77 | inactive
UBA7 | 0.77 | inactive
UBA7 | 0.58 | inactive
UBA7 | 0.64 | inactive
UBA7 | 1.23 | inactive

No new results follow: an excerpt of the list.
gene | TNF reporter robust z-score | outcome
TMEM187 | -1.54 | active
TMEM187 | -0.33 | inactive
TMEM187 | -1.11 | inactive
ITGB3BP | -0.79 | inactive
ITGB3BP | -1.08 | inactive
ITGB3BP | -0.59 | inactive
ITGB3BP | -0.78 | inactive
ATP9A | 0.14 | inactive
ATP9A | -0.08 | inactive
ATP9A | -0.57 | inactive
ATP9A | -0.04 | inactive
